The subject of data set [1] is Hepatoma AH 130. The data set can be described thus: Hepatoma AH 130 tumour growth inhibition in rats, i.p. Format: in vivo, Sprague-Dawley rats. The conditions noted are these: therapeutic index, ratio LD50/ED50; Hepatoma AH 130, i.p. The text has this:
(§1) LD50 is the dose that causes a 50 percent lethality of the animals, and ED50 is the dose that causes a 50 percent reduction of tumour size.
(§2) From the data below it is obvious that the compounds have a very low toxicity, and that the therapeutic indexes (T.I.), i.e. the ratios LD50/ED50, are very high.
(§3) The experimental design is in accordance with the standards set by the CCNSC (Cancer Cheomotherapy Reports, January 1959 and December 1962).
(§4) Experimental animals: Sprague-Dawley rats.
Tumour implant: 5 × 10^6 tumour cells i.p.
Therapy: One injection i.p. on the day following implantation.
Termination: The animals are killed on the 8th day.
(§5) Evaluation: Weights of tumours of test animals are compared
(§6) with those of control animals.

The test system of data set [2] is Walker carcinosarcoma 256. The data set can be described thus: Walker carcinosarcoma 256 tumour growth inhibition in rats, p.o. Type of data set: in vivo, Sprague-Dawley rats. The conditions noted are these: therapeutic index, ratio LD50/ED50; Walker carcinosarcoma 256, p.o.
Excerpt: as §1, §2, §3
Walker carcinosarcoma 256
as §4
Tumour implant: Tumour pieces with 2-4 mm diameter, subcu-
Therapy: Daily p.o. administration for 5 days starting on
the day following implantation.
Termination: The animals are killed on the 9th day.
as §5, §6

Consider eight compounds from patent US4150126A, “Novel enol esters of steroids, compositions containing such compounds, processes for their preparation and methods of treatment therewith” (Aktiebolaget Leo, priority 1976, dated 1979).

SMILES strings stand for the structures.

Consider `CC(=O)O[C@H]1CC[C@H]2[C@@H]3CC=C4C=C(OC(=O)CCCc5ccc(N(CCCl)CCCl)cc5)CC[C@]4(C)[C@H]3CC[C@]12C` [1:11, 17β-acetoxy-3-[4-(4-(N,N-bis(2-chloroethyl)amino)phenyl)butanoyloxy]androsta-3,5-diene], for which the T.I. in data set [1] is recorded as greater than 12; in data set [2], 50. For `CC(=O)O[C@H]1CC[C@H]2[C@@H]3CCC4CC(OC(=O)CCCc5ccc(N(CCCl)CCCl)cc5)=CC[C@]4(C)[C@H]3CC[C@]12C` (stereo partly drawn) [1:12, 17β-acetoxy-3-[4-(4-(N,N-bis(2-chloroethyl)amino)phenyl)butanoyloxy]androst-2-ene], the T.I. is given as greater than 8 in data set [1] and 150 in data set [2]. On to `CC(=O)OCC(=O)[C@@]1(OC(C)=O)CC[C@H]2[C@@H]3CC=C4C=C(OC(=O)CCCc5ccc(N(CCCl)CCCl)cc5)CC[C@]4(C)[C@H]3CC[C@@]21C` [1:16, 17,21-diacetoxy-3-[4-(4-(N,N-bis(2-chloroethyl)amino)phenyl)butanoyloxy]-pregna-3,5-dien-20-one], for which the T.I. in data set [2] is on record as greater than 30. For `CC(=O)O[C@]1(C(C)=O)CC[C@H]2[C@@H]3CC=C4C=C(OC(=O)c5ccc(C)c(N(CCCl)CCCl)c5)CC[C@]4(C)[C@H]3CC[C@@]21C` [2:11, 17-acetoxy-3-[3-(N,N-bis(2-chloroethyl)amino)-4-methylbenzoyloxy]pregna-3,5-dien-20-one], the T.I. in data set [1] is greater than 5. Take `CC(=O)O[C@]1(C(C)=O)CC[C@H]2[C@@H]3CC=C4C=C(OC(=O)CCCc5ccc(N(CCCl)CCCl)cc5)CC[C@]4(C)[C@H]3CC[C@@]21C` [Compound 1:1, 17-acetoxy-3-/4-(4-(N,N-bis(2-chloroethyl)amino)phenyl)butanoyloxy/pregna-3,5-dien-20-one]: the T.I. in data set [2] is reported as greater than 125. With `CC(=O)[C@H]1CC[C@H]2[C@@H]3CC=C4C=C(OC(=O)CCCc5ccc(N(CCCl)CCCl)cc5)CC[C@]4(C)[C@H]3CC[C@]12C` [Compound 1:2, 3-/4-(4-(N,N-bis(2-chloroethyl)amino)phenyl)butanoyloxy/pregna-3,5-dien-20-one], the figures for the T.I. in data set [1] and in data set [2] were 13 and 83, respectively. On to `CC(=O)O[C@]1(C(C)=O)CC[C@H]2[C@@H]3CC=C4C=C(OC(=O)Cc5ccc(N(CCCl)CCCl)cc5)CC[C@]4(C)[C@H]3CC[C@@]21C` [Compound 1:14, 17-acetoxy-3-[4-(N,N-bis(2-chloroethyl)amino)phenylacetoxy]pregna-3,5-dien-20-one], for which the results for the T.I. in data set [1] and in data set [2] were greater than 30 and greater than 125, respectively. For `C#C[C@]1(OC(C)=O)CC[C@H]2[C@@H]3CC=C4C=C(OC(=O)CCCc5ccc(N(CCCl)CCCl)cc5)CC[C@@H]4[C@H]3CC[C@@]21C` [Compound 2:2, 17β-acetoxy-3/4-(4-(N,N-bis(2-chloroethyl)amino)phenyl)butanoyloxy/-17α-ethynylestra-3,5-diene] the same measures were greater than 10 and 40.
